Laboratory results as given in patent US12703712B2, “Indenonaphthopyrans having trialkylsilyl and ethylenically unsaturated groups” (Transitions Optical, Ltd., priority 2021, dated 2026).

test: Colour upon exposure to UV light, compound formulated into a coating composition; settings: coating composition as described in Part 2 of U.S. Pat. No. 8,608,988 B2

Row | SMILES | Color exhibited upon exposure to UV light
1 | C=C(C)C(=O)OCCOC(=O)CCC(=O)N1CCN(c2ccc(C3(c4ccccc4)C=Cc4c5c(c6cc(N7CCCCC7)c(OC)cc6c4O3)-c3ccc([Si](C)(C)C)cc3C5(C)C)cc2)CC1 (stereo not shown) [Example 5] | purple
2 | C=C(C)C(=O)OCC1CCCN(c2cc3c4c(c5c(c3cc2OC)OC(c2ccc(N3CCOCC3)cc2)(c2ccc([Si](C)(C)C)cc2)C=C5)C(C)(C)c2cc(-c3ccc(C(C)(C)C)cc3)ccc2-4)C1 (stereo not shown) [Example 6, 6-methoxy-7-((3-methacryloxymethyl)piperidin-1-yl)-11-(4-t-butylphenyl)-13,13-dimethyl-3-(4-morpholinophenyl)-3-(4-trimethylsilylphenyl)-3H,13H-indeno[2′,3′: 3,4]naphtho[1,2-b]pyran] | dark purple
3 | C=C(C)C(=O)OCC1CCCN(c2cc3c4c(c5c(c3cc2OC)OC(c2ccccc2)(c2ccc(N3CCOCC3)cc2)C=C5)C(C)(C)c2cc(-c3ccc(C(C)(C)C)cc3)ccc2-4)C1 (stereo not shown) [CE-3, 6-methoxy-7-((3-methacryloxymethyl)piperidin-1-yl)-11-(4-t-butylphenyl)-13,13-dimethyl-3-(4-morpholinophenyl)-3-phenyl-3H,13H-indeno[2′,3′:3,4]naphtho[1,2-b]pyran] | dark purple
4 | C=C(C)C(=O)OCCOC(=O)CCC(=O)N1CCN(c2ccc(C3(c4ccccc4)C=Cc4c5c(c6cc(N7CCCCC7)c(OC)cc6c4O3)-c3ccccc3C5(C)C)cc2)CC1 (stereo not shown) [CE-2] | purple
